Reference: the supplement of paper PMC6445147
Values scatter widely in this assay.

B1: human tRNA-Pro; a variant is named by its letters at N, in order (parent)
chain: GGCTCGTTGGTCTAGNGGTATGATTCTCGCTTAGGGTGCGAGAGGTCCCGGGTTCNNATCCCGGACGAGCCC

Variants of: B1
Experiment: tRNA 3' processing efficiency (processed reads / all reads, maximum-likelihood estimate) (fraction); higher = more efficient 3' processing
Conditions: HEK293T; construct: no Pol-II promoter ((-)CMV library)

Row | Variant | tRNA 3' processing efficiency
1 | AAA T8C A14G T59A | 0.25
2 | AAA T19G C55T A58G | 0.57
3 | GAA T8C A14C T19A A58C | 0.4
4 | AAC T8C A20G | 0.25
5 | GGA G15A A20G G50A T59A | 0.25
6 | TAA T8C A14C G17C T19G A20G A58C | 0.38
7 | AAA G6A T59G G63A | 0.25
8 | TGA T19G C55T | 0.43
9 | GGG G9A T19A A20T T53A | 0.4
10 | GGA G15A A33G | 0.25
11 | GAA G15A T19A A58G T59A | 0.25
12 | GCA A14T A20T A58T | 0.5
13 | CAA G9A A14G T19A A58G | 0.33
14 | GAA G15A A58C T59C | 0.2
15 | GAA C3T T4G G6T G9T A20T | 0.5
16 | GAG T8G G15A G17C | 0.2
17 | AAA T8C A58T T59A | 0.33
18 | GAA G9A A14T A33G | 0.2
19 | CAT A14T G17A T19C A20T | 0.57
20 | GAA A20C G44A A58T | 0.25
21 | TAC T8C A14T A20G | 0.75

Taken from above.
AAA T8C A58T T59A – tRNA 3' processing efficiency: 0.33
AAA T19G C55T A58G – tRNA 3' processing efficiency: 0.57
AAC T8C A20G – tRNA 3' processing efficiency: 0.25
GGA G15A A20G G50A T59A – tRNA 3' processing efficiency: 0.25

(cont.)

Row | Variant | tRNA 3' processing efficiency
22 | GTA G15C T19A A58T | 0.22
23 | TTA A14G A20T | 0.11
24 | TAT A14T G15C | 0.25
25 | GGG T8C G9A T19A A58C | 0.4
26 | GGG A14C G15T A58T | 0.56
27 | GAC G9A T19A A58T | 0.4
28 | GGA A14T A20T T54A | 0.25
29 | TAA T19A A33G A58T | 0.57
30 | AAG A14G T19A | 0.56
31 | GGA T19A T53A T59G | 0.25
32 | GGA A14C G18T T19C T53A | 0.57
33 | CAT A14T A58G T59A | 0.5
34 | GCA T7A T19C A58G | 0.4
35 | GCA T8G A14C G18C | 0.57
36 | GAC T8G A14T G15C G17T | 0.14
37 | AGA A14T C55G A58T | 0.56
38 | TGC G9T | 0.5
39 | GAG G1T G17C A20T T59C | 0.2
40 | GTA G15C G17T A58T | 0.33
41 | GAT T8C G10C | 0.4
42 | TTA T19G G38A | 0.4

Row | Variant | tRNA 3' processing efficiency
43 | GTA A14T T19G A58C | 0.33
44 | GAA T27C T53A | 0.4
45 | GAA A33G A58C | 0.2
46 | CTA G34A A58G | 0.2
47 | GGA T8C A14T T19G | 0.4
48 | GAA G9A A58C T59C | 0.29
49 | GAA T8C T19A A20C C55T | 0.2
50 | GAA T19G A20C G52T | 0.17
51 | TAA G9A T19G C55T | 0.29
52 | GAT G9A G15C | 0.25
53 | GTA G9A A14G A58G | 0.52
54 | GTA T8G G15C A58G T59G | 0.3
55 | GAA T19A A20T T53A T59G | 0.14
56 | GTA A14C G34A | 0.4
57 | GAA G9A A14T A58C T59C | 0.43
58 | GAA G15A G17C A58C | 0.33
59 | GAA G15A T19G A20T T59C | 0.25
60 | GAC T46C A58T | 0.25
61 | CAA T8G A20T T59A | 0.14
62 | GAA G51A C55T | 0.13
63 | GGA G15C T53A T59G | 0.25

Row | Variant | tRNA 3' processing efficiency
64 | GAG A14C T19A C55G | 0.14
65 | CAT A14G G18A | 0.56
66 | GTA G17T T19A A20G T59C | 0.5
67 | TAA A14G A20T T53A | 0.17
68 | TAT G9A A14T T19G | 0.11
69 | TAG A14G A20T | 0.14
70 | GAC T8C T59C | 0.15
71 | CTG T59G | 0.2
72 | CAA G9A A58T T59G | 0.4
73 | CAA T8C G9A A20T | 0.62
74 | AAA A14T T19G A58C T59G | 0.25
75 | GTA A14C G15C T19A T59G | 0.25
76 | GAA G44A T59C | 0.4
77 | CCA A20G T59A | 0.23
78 | GAA G9C A14G G17T A20T T59A | 0.13
79 | AGC T19C G40T T59G | 0.25
80 | GCA A14C T19G A41C A58T | 0.57
81 | GCC T8G | 0.33
82 | TAA G9A A58G T59G | 0.2
83 | TGA A14G T53A T59G | 0.5
